Measured values published in paper PMC9658184.
Results are given in words; binding and its absence hold for the method and conditions named. Binding seen in cells or lysates may run through a third protein. Some entries that bind do so weakly or less than the wild type.

The chains behind the UniProt entries cited, without tags or fusion partners. Where a name states a change or a piece, a line headed by the entry shows the natural chain unless it says otherwise. A line that says so, or that is headed by a name, gives the form on record, which may keep a tag or linker.
UniProt Q38HM4: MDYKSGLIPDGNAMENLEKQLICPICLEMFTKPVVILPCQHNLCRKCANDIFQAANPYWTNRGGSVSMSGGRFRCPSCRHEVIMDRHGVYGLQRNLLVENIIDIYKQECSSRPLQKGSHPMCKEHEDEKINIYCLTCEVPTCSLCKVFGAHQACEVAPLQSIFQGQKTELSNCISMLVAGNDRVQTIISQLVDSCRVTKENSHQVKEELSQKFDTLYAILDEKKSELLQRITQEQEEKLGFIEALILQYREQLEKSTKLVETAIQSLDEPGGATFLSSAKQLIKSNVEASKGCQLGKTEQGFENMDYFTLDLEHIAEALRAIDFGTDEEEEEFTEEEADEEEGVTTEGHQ
SERCA2a (sarcoplasmic reticulum Ca2+-ATPase 2a), mouse, endogenous in cardiac tissue (O55143-2, form named): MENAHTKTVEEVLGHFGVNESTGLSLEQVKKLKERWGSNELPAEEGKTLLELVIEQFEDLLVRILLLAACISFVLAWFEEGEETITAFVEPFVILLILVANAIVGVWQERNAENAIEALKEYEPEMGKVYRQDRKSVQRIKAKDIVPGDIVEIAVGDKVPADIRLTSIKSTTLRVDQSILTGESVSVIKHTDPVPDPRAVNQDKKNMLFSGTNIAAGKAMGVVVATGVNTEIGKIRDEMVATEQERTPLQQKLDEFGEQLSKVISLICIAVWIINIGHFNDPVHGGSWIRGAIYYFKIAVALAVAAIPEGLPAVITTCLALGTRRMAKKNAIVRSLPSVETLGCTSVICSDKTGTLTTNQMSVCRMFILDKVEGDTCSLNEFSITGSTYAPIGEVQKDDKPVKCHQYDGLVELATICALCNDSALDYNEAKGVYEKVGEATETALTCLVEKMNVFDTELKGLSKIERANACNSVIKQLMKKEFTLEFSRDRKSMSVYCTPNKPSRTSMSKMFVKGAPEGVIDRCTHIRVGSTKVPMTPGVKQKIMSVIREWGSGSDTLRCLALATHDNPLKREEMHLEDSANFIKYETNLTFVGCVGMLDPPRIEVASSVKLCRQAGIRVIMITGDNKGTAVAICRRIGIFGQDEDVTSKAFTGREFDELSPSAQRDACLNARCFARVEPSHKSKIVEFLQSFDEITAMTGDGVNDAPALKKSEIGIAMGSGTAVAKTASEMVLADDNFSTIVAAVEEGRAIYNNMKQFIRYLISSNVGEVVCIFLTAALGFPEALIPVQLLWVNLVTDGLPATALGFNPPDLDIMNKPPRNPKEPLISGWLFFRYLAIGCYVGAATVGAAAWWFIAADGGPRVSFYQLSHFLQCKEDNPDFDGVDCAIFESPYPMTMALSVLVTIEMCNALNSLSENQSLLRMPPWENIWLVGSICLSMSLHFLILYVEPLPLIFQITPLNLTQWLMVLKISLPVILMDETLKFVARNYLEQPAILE
UniProt Q91Z63: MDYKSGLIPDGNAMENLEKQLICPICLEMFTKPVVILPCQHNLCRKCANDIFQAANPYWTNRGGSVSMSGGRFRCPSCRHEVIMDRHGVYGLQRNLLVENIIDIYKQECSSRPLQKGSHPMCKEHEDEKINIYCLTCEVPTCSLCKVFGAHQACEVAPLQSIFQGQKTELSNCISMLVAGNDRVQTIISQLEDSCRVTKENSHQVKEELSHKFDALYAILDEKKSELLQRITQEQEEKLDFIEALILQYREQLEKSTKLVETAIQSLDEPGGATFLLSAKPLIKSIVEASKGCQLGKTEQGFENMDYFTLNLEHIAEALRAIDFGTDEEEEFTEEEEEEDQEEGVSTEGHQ

Tests used:
[1] = biological target: Muscle RING Finger-1 (MuRF1), mouse, endogenous in cardiac tissue (mouse (endogenous in cardiac tissue)) (UniProt Q38HM4); test: co-IP; cardiac tissue lysate of mice (control, db/db, with or without NaHS) immunoprecipitated with anti-MuRF1 antibody on Protein G Plus agarose, 4 °C overnight; immunoblot for SERCA2a
[2] = biological target: SERCA2a (sarcoplasmic reticulum Ca2+-ATPase 2a), rat, endogenous in neonatal rat cardiomyocytes (rat (endogenous in neonatal rat cardiomyocytes)) (UniProt P11507); test: co-IP; neonatal rat cardiomyocytes (control, high glucose + palmitate + oleate, with or without NaHS) immunoprecipitated with anti-SERCA2a antibody on Protein G Plus agarose, 4 °C overnight; immunoblot for MuRF1

binding [1] | binding [2] | Substance
binds | – | SERCA2a (sarcoplasmic reticulum Ca2+-ATPase 2a), mouse, endogenous in cardiac tissue (from UniProt O55143-2 1-998)
– | binds | Muscle RING Finger-1 (MuRF1), rat, endogenous in neonatal rat cardiomyocytes (from UniProt Q91Z63 1-351)
